Results on four molecules are retold here after publication PMC3622177.

Sequences of proteins named here, by UniProt entry; tags and fusion partners are left off. A change or cut given only in a name is not applied to a line headed by its entry.
UniProt Q80W65: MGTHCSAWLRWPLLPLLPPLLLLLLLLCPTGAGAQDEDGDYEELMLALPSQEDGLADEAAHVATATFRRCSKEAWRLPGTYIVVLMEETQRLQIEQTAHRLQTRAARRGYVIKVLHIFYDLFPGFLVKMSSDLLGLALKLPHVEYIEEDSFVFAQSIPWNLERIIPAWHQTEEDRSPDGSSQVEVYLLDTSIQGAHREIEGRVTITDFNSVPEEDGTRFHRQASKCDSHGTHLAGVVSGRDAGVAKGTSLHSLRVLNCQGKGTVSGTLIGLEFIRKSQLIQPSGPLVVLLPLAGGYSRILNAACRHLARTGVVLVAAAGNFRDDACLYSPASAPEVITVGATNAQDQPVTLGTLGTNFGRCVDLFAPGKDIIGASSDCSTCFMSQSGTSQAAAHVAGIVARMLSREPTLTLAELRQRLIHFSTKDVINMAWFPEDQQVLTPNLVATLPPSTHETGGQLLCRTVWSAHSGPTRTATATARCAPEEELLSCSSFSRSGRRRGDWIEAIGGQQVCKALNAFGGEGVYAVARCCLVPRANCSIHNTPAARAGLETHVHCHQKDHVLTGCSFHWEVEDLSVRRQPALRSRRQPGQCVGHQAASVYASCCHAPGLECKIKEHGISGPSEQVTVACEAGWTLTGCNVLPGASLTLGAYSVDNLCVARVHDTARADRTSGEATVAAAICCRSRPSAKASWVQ

The test deals with PCSK9 fused with a C-terminal FLAG tag (PCSK9-FLAG) (mouse) (UniProt Q80W65). The test can be described thus: co-IP; lysates of 293T cells stably expressing PCSK9-FLAG, transfected with RFP-tagged SEC24A-D and GFP-tagged SEC23A; extracted in CHAPS-based buffer B (100 mM Tris pH 7.5, 0.5% CHAPS, 10% glycerol, 130 mM NaCl), anti-FLAG M2 agarose 4 hr at 4°C, four washes; immunoblot with anti-RFP and anti-FLAG.

Results are given in words; binding and its absence hold for the method and conditions named. In cells and extracts the contact can be indirect. Binding can be weak; no strength is given. Where a sequence is shown, tags or fusion partners need not be part of it.

B1: RFP-tagged SEC24D (protein, UniProt Q6NXL1 1-1032)
chain: MSQQGYVATPPYSQSQPGMGISPPHYGHYGDPSHASSPPGVMKPLGPSAAPSGMLPPGPLPPGPPQFGPNGAHTPGHPPQRFPGPPPVNSVAPSYASGQTLPQSSYPGPGSTSSVTQLGSQFSSMQINSYGVGATPQSQGPPGPQSAGAFQGPPQPAQPSILQPGHQVPPPPPTALNGPGASPMSPPTHRQDGLPGPAPLNAQYQPPPPPGQTLGPGYPPQQATNYGPQMGGAQMSYPGGFPGGPAQMAGPAPQLQRKLDPDSIPSPIQVIENDRATRGGQVYTTNTRGQVPPLVTTECVIQDQGHSSPRYIRCTTYCFPCTSDMAKQAQIPLAAVIKPFADIPPNETPLYLVNHGESGPVRCNRCKAYMCPFMQFIEGGRRYQCGFCSCVNEVPPFYFQHLDHIGRRLDHYEKPELSLGSYEYVATLDYCRKNKPPSPPAFIFMIDVSYSNIKNGLVKLICEELKTALKRLPKEEHEETSAIRVGFITYNKVLHFFNVKSNLAQPQMMVVTDVGEVFVPLLDGFLVNYEESQSVIHNLLDQIPEMFADSNENETVFAPVIQAGMEALKAAECPGKLFIFHSSLPTAEAPGKLKNRDDKKLVNTDKEKILFQPQTAVYESLAKDCVANSCSVTLFLFPSQFVDVASLGLVPLLTGGTLYKYNVFQIHSDSQRFLTDLRNDIEKKIGFDAIMRVRTSTGFRATDFFGGIFMNNTTDVEMAAIDCDKAVTVEFKHDDKLSEDVGALIQCAVLYTTISGQRRLRIHNLALNCSTQLADLYKSCETDALINFFAKSAFKAVLNQPLKAIREILVNQTAHMLACYRKHCASPSAASQLILPDSMKVLPVYMNSLLKNCVLLSRSEISPDERAYQRQLVMTMGVADSQLFFYPLLLPIHTLDVKSAALPPAVRCSESRLSEEGIFLLANGLNMFLWFGVGSPPELIQGIFNVPSFAHINTDMTSLPEVGSPHSQQLRMIMNNIQQKKPYSMKLIVVKQREQREMAFRQFLVEDKGLYGGSSYVDFLCCVHKEICQLLN
For the molecule B1, the binding result is on record as “no binding”.

B2: RFP-tagged SEC24A (protein, UniProt Q3U2P1 1-1090)
chain: MAQPRIPAARGAAASLQAQNGAASASGSPYTNGPVHNTLMSPQVSSSQGYDSQPPGSYPRPMPAKTLNPFSAQSNYGGSQGSGQTLNSPLVTSGPVLPSLHSGPVPRMPLPTSQNPAATPMPSGSFLPGANPPPPLNWQYNYPSTGPQTNHFPHVAPPTLPGNPNLTADHQYVSSGDPALQTSFKKPGSALPLQNPPLPPTFQPGAPPGPPPAGGPPPSRGPAPQKTPPRAAPPPSFNSAVNQEGITSNANNGSTAAHNTYDEIEGGGFLATPQLVNQNPKTSRSVGSAYPSLPPGYQNSAPPVAGMPPPSLSYPSGPQAFTQTPLGANHLTASMSGLSLHPEGLRVVNLLQERNMLPSTPLQPPVPNLLEDIQKLNCNPELFRCTLTSVPQTQALLNKAKLPLGLLLHPFKDLVQLPVVTSSTIVRCRSCRTYINPFVNFLDQRRWKCNLCYRVNDVPEEFMYNPLTRVYGEPHKRPEVQNATIEFMAPSEYMLRPPQPPVYLFVFDVSHNAIETGYLNSVCQSLLDNLDLLPGNTRTKIGFITFDSTIHFYSLQEGLSQPQMLIVSDIDDVFIPMPENLLVNLNESKELVQDLLKTLPQMFTKTLETQSALGPALQAAFKLISPTGGRMSVFQTQLPTLGVGALKPREEPNQRSSAKEIHLTPSTDFYKKLALDCSGQQAAVDLFLLSGQYSDLASLGCISRYSAGSVYYYPSYHHQHNPVQVQKLQKELHRYLTRKIGFEAVMRIRCTKGLSIHTFHGNFFVRSTDLLSLPNVNPDAGYAVQMSVEESLTDTQLVSFQSALLYTSSKGERRIRVHTLCLPVVSTLNEVFLGADVQAISGLLANMAVDRSVTASLSDARDALVNAVIDSLSAYRSSVLSGQQPGLMVPFSLRLFPLFVLALLKQKSFQTGTSIRLDERIFAMCQVKSQPLVHLMLTTHPSLYRVDNLSDEGALNINDRTIPQPPILQLSVEKLSRDGAFLMDAGSLLMLWVGRNCSQNFLSQVLGVQNYASIPQTMTDLPELDTPESARIAAFISWLREQRPFFPVLYVIREESLMKAAFLQSLVEDRTESALSYYEFLLHIQQQVNK
For B2, the binding entry was “binds”.

B3: RFP-tagged SEC24B (protein, UniProt Q80ZX0 1-1251)
chain: MSAPAGSPHPAAGARMPPKLGGAVSGLAPPQQNGPAQSPMQVPSGYGLPHQNYMVPSGHYSQGPGKMTSLPLDSQCDSYYSRPYTVPTQNSGTPSSANQPGAQQMYGRGPSAPHMGGSMPGSFQGIPASASHSYSSASQPYSSLGNRYSSPTTYSANASVASQGYPSTCSHYPISTVSNVVYPNVSYPSLPASEPYGQMFTSQSAPPPARPVKESYSGPSTALTYPSRPPPPPSQHQQQQQQQQQQQQQQQSHSGYSSLPWSGPALPPAQDSLIRNQMGSLATANSHPTNNENVQPPKSSSVVSTVLPGPSSTRMPPAPSHPVGPVPSAPPPPEQMQTKGMQYGDYGNNQASSTATPLSSASDDEEEQEEDEEAGVDSSSTTSSASPLPNSYDALEGGSYPDMHSSSASSPVPDHALEPSPTLAQALSAAPTPPAAQPAKVAKPFGYGYPALQPAYQNAAPPPMPAAHPSGPAYTGYPQHYPGVNQLSSGLGGLSLQSSPQPESLRPVNLTQEKNILPPTPIWAPVPNLSAELSKLNCSPDSFRCTLTSIPQTQALLNKAKLPLGLLLHPFRDLTQLPVITSNTIVRCRSCRTYINPFVSFIDQRRWKCNLCYRVNDVPEEFLYNPLTRSYGEPHKRPEVQNSTVEFIASSDYMLRPPQPAVYLFVLDVSHNAVEAGYLTVLCQSLLENLDKLPGDSRTRIGFMTFDSTIHFYNLQEGLSQPQMLIVSDIDDVFLPTPDSLLVNLYESKELIKDLLNALPSMFINTRETHSALGPALQAAFKLMSPTGGRVSVFQTQLPSLGAGLLQSREDPNQRSSTKVVHHLGPATDFYKKLALDCSGQQTAVDLFLLSSQYSDLASLACMSKYSAGCIFYYPSFHSTHNPSQAEKLQKDLKRYLTRKIGFEAVMRIRCTKGLSMHTFHGNFFVRSTDLLSLANINPDAGFAVQLSIEESLTDTALVCFQTALLYTSSKGERRIRVHTLCLPVVSSLADVYAGVDVQAAVCLLANMAVDRSVSSSLSDARDALVNAVVDPLSAYSSAVASVPRSTLTAPSSLKLLPLYVLALLKQKAFRTGTSTRLDDRVYAMCQMKSQPLVHLMKMIHPNLYRIDRLTDEGAIHVNDRVVPQPPLQKLSAEKLTREGAFLMDCGSVFYIWVGKGCDSNFIENVLGYPDFASIPQKMTHLPELDTLPSERTRSFVTWLRDSRPLSPVLHLVKDESPAKTDFFQHLLEDRTEAALSYYEFLIHIQQQVCK
With B3, the binding result was “binds”.

B4: RFP-tagged SEC24C (protein, UniProt G3X972 1-1096)
chain: MNVNQSAPPVPPYGQNQPIYPGYHQSSYGGQPGPAAPATPYGAYNGPVPGYQQAPPQGVPRAPPSSGAPPASAAQVPCGQTTYGQFGQGDIQNGPSSTAQMQRVPGSQQFGPPLAPVVSQPAVLQPYGPPPTSTQVTAQLAGMQISGAVAQAPPPSGLGYGPPTSLASASGNFPNSGPYGSYPQSQAPPLSQAQGHPGVQPPLRSAPPLASSFTSPASGGPQMPSMTGLLPPGQGFGSLPVNQANHVSSPPAPALPPGTQMTGPPVPPPPPMHSPQQPGYQLQQNGSFGPARGPQPNYESPYPGAPTFGSQPGPPQPLPPKRLDPDAIPSPIQVIEDDRNNRGSEPFVTGVRGQVPPLVTTNFLVKDQGNASPRYIRCTSYNIPCTSDMAKQAQVPLAAVIKPLARLPPEEASPYVVDHGESGPLRCNRCKAYMCPLMTFIEGGRRFQCSFCSCVNDVPPQYFQHLDHTGKRVDAYDRPELSLGSYEFLATVDYCKNNKFPSPPAFIFMIDVSYNAIRTGLVRLLCEELKSLLDYLPREGGAEESAIRVGFVTYNKVLHFYNVKSSLAQPQMMVVSDVADMFVPLLDGFLVNVSESRAVITSLLDQIPEMFADTRETETVFAPVIQAGMEALKAAECAGKLFLFHTSLPIAEAPGKLKNRDDRKLINTDKEKTLFQPQTGTYQTLAKECVAQGCCVDLFLFPNQYVDVATLSVVPQLTGGSVYKYACFQVENDQERFLSDLRRDVQKVVGFDAVMRVRTSTGIRAVDFFGAFYMSNTTDVELAGLDGDKTVTVEFKHDDRLNEENGALLQCALLYTSCAGQRRLRIHNLALNCCTQLADLYRNCETDTLINYMAKFAYRAVLNSPVKTVRDTLITQCAQILACYRKNCASPSSAGQLILPECMKLLPVYLNCVLKSDVLQPGAEVTTDDRAYVRQLVSSMDVAETNVFFYPRLLPLTKSPLDSTAEPPAVRASEERLSSGDIYLLENGLNLFVWVGASVQQGVVQSLFNVSSFSQITSGLSVLPVLDNPLSKKVRGLIDSLRAQRMRYMKLIVVKQEDKLEMLFKHFLVEDKSLSGGASYVDFLCHMHKEIRQLLS
With B4, the binding result was “no binding”.
